No constants are given. Whether binding was seen depends on the method and setting. For some assays here: Binding seen in cells or lysates may run through a third protein. Some entries that bind do so weakly or less than the wild type. For some assays here: Where a sequence is shown, tags or fusion partners need not be part of it. One block for each binder: values may come before it.
Columns and labels:
[1] = biological target: Flag-VHL, full-length (human) (UniProt P40337); assay: co-IP; mapping of VHL regions: full-length Flag-VHL or Flag-tagged acidic domain, β-domain or α-domain transiently transfected into HEK293T cells; form of UBE3B not given
[2] = biological target: Flag-VHL, full-length (human) (UniProt P40337); assay: co-IP; mapping of UBE3B regions: full-length (FL) or truncated Myc-UBE3B with VHL; cells and form of VHL not given
[3] = biological target: Flag-VHL, full-length (human) (UniProt P40337); assay: co-IP; HEK293T and HeLa cells transfected with Flag-VHL and Myc-UBE3B; IP with anti-Flag or anti-Myc antibody and protein G/A magnetic beads overnight at 4 °C; lysis buffer 10 mM Tris-HCl, 150 mM NaCl, 1 mM EDTA, 0.5% NP-40, pH 7.4
[4] = biological target: endogenous VHL (human (endogenous in MDA-MB-231 and T47D)) (UniProt P40337); assay: co-IP; endogenous proteins in MDA-MB-231 and T47D cells treated with 10 μM MG132 for 6 h before harvest; IP of UBE3B or of VHL; lysis buffer 10 mM Tris-HCl, 150 mM NaCl, 1 mM EDTA, 0.5% NP-40, pH 7.4
[5] = biological target: GST-VHL (human) (UniProt P40337); assay: pull-down; GST pull-down with purified GST-VHL (or GST alone) and purified His-UBE3B in equal amounts; beads washed five times; western blot; both purified

Protein sequences, listed by entry. Tags and fused reporters are not part of them. Lines headed by an entry give the natural chain unless they say otherwise; changes in a name come on top.
UniProt P40337: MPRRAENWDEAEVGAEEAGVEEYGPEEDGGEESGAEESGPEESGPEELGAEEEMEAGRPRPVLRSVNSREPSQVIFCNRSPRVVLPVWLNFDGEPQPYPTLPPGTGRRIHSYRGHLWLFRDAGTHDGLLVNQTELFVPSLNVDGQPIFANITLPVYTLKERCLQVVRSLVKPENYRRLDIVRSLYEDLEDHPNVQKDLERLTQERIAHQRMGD

binding [1]: binds
binding [2]: binds
binding [3]: binds
B1: Myc-UBE3B, full-length (FL) (protein, UniProt Q7Z3V4 1-1068)
chain: MFTLSQTSRAWFIDRARQAREERLVQKERERAAVVIQAHVRSFLCRSRLQRDIRREIDDFFKADDPESTKRSALCIFKIARKLLFLFRIKEDNERFEKLCRSILSSMDAENEPKVWYVSLACSKDLTLLWIQQIKNILWYCCDFLKQLKPEILQDSRLITLYLTMLVTFTDTSTWKILRGKGESLRPAMNHICANIMGHLNQHGFYSVLQILLTRGLARPRPCLSKGTLTAAFSLALRPVIAAQFSDNLIRPFLIHIMSVPALVTHLSTVTPERLTVLESHDMLRKFIIFLRDQDRCRDVCESLEGCHTLCLMGNLLHLGSLSPRVLEEETDGFVSLLTQTLCYCRKYVSQKKSNLTHWHPVLGWFSQSVDYGLNESMHLITKQLQFLWGVPLIRIFFCDILSKKLLESQEPAHAQPASPQNVLPVKSLLKRAFQKSASVRNILRPVGGKRVDSAEVQKVCNICVLYQTSLTTLTQIRLQILTGLTYLDDLLPKLWAFICELGPHGGLKLFLECLNNDTEESKQLLAMLMLFCDCSRHLITILDDIEVYEEQISFKLEELVTISSFLNSFVFKMIWDGIVENAKGETLELFQSVHGWLMVLYERDCRRRFTPEDHWLRKDLKPSVLFQELDRDRKRAQLILQYIPHVIPHKNRVLLFRTMVTKEKEKLGLVETSSASPHVTHITIRRSRMLEDGYEQLRQLSQHAMKGVIRVKFVNDLGVDEAGIDQDGVFKEFLEEIIKRVFDPALNLFKTTSGDERLYPSPTSYIHENYLQLFEFVGKMLGKAVYEGIVVDVPFASFFLSQLLGHHHSVFYSSVDELPSLDSEFYKNLTSIKRYDGDITDLGLTLSYDEDVMGQLVCHELIPGGKTIPVTNENKISYIHLMAHFRMHTQIKNQTAALISGFRSIIKPEWIRMFSTPELQRLISGDNAEIDLEDLKKHTVYYGGFHGSHRVIIWLWDILASDFTPDERAMFLKFVTSCSRPPLLGFAYLKPPFSIRCVEVSDDQDTGDTLGSVLRGFFTIRKREPGGRLPTSSTCFNLLKLPNYSKKSVLREKLRYAISMNTGFELS

binding [4]: binds
B2: endogenous UBE3B (protein, UniProt Q7Z3V4 1-1068)
chain: B1 chain

binding [5]: binds
B3: His-UBE3B (protein, UniProt Q7Z3V4 1-1068)
chain: B1 chain

Reference: article PMC11196597
